Data taken from publication PMC10847197.
These are yes or no findings as the source states them, for the method shown. In cells and extracts the contact can be indirect. Some entries that bind do so weakly or less than the wild type.

Tests used:
[1] = target: cellular prion protein (PrPc), human (human (endogenous in post-mortem temporal cortex)) (UniProt P04156); test: FRET or BRET
[2] = target: progesterone receptor membrane component 1 (PGRMC1), human (human (endogenous in post-mortem temporal cortex)) (UniProt O00264); test: FRET or BRET; array tomography with sensitized emission FRET (Cy3 donor, Cy5 acceptor on antibodies) on 70 nm sections of human Alzheimer's temporal cortex; pixels where donor and acceptor overlap within post synapses (PSD95 objects); Aβ labelled with 6E10; percent of pixels with any FRET signal

## transmembrane protein 97 (TMEM97), human (from UniProt Q5BJF2 1-176) (receptor)
[1]
  binding: binds
[2]
  binding: binds
